# Where “and” joins values, the source holds several entries; their conditions need not be identical. Equal entries are not always repeated. Hit rate of the full screen: of about 580,000 compounds, about 6,100 (1.1%) were called active. The shares of active, inactive and inconclusive entries below differ from those in the screen. Calls follow the shape of the dose curve; as a rule, active = well fitted inhibition curve with a large enough effect; inconclusive = small, poorly fitted or top-dose-only effect, or another doubt; inactive = no such curve, though single readings can be large or run the other way. Potencies of inconclusive entries are doubtful fits and often do not repeat.
# Chains of the proteins cited; added tags and fusions are not shown.
# UniProt P18054, whole entry, looked up: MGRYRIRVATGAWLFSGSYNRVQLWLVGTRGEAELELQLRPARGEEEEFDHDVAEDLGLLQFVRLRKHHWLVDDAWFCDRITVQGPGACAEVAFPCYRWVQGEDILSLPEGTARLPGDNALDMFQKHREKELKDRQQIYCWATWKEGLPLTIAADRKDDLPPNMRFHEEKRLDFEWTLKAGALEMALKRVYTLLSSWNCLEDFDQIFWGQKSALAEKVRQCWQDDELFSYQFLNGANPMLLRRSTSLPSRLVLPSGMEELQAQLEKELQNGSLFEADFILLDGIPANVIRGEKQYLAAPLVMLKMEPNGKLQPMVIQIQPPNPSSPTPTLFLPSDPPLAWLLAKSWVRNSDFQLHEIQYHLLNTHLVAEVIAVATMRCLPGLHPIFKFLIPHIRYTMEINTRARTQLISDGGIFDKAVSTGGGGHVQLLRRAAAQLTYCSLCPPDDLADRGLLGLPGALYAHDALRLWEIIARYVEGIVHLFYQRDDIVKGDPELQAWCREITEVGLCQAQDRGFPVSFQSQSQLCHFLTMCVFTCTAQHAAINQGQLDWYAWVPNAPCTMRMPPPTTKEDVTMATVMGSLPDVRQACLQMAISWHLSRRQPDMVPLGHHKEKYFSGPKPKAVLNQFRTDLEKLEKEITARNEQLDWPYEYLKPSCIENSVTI
# Target: Polyunsaturated fatty acid lipoxygenase ALOX12 (Homo sapiens) (UniProt P18054)
# Experiment: Primary qHTS assay for inhibitors of human arachidonate 12S-lipoxygenase (ALOX12): Round 2
# Conditions: purified 12hLO, xylenol orange hydroperoxide absorbance; activity change, negative = inhibition: at 108 µM (top of the series) unless noted
# Summary of the method: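 Hydroperoxide product was detected by ferrous iron/xylenol orange as the 573 to 405 nm absorbance ratio. Arachidonic acid at 40 uM (final) was turned over for 30 min at room temperature by 150 nM human 12hLO, pH 7.0 Hepes buffer, after 15 min compound preincubation.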
# % is scaled to controls: 0 for no effect and ±100 for the full control effect; potency is read from the fitted curve at half-maximal effect.
Compound,Potency,"activity change, negative = inhibition"
O=S(=O)(NCCc1csc(-c2cccc(F)c2)n1)c1cc(F)ccc1F,"inconclusive: 100 µM [inhibitor, single point]",
CON/C=N/C(=S)Nc1ncc(C(F)(F)F)cc1Cl,"inconclusive: 14.1 µM [inhibitor, full curve]",
S=c1[nH]nc(CSc2nc3ccccc3s2)n1Cc1ccccc1,"inconclusive: 10 µM [inhibitor, partial curve, poor fit]",
N#CC(C#N)=NNc1ccc(S(=O)(=O)N2CCCCC2)cc1,"inconclusive: 89.1 µM [inhibitor, partial curve, poor fit]",
CCOC(=O)c1cc(-c2ccccc2)sc1NC(=O)CC,inactive,
COc1ccc(C2C(C(C)=O)=C(O)C(=O)N2c2ccc(C)cc2)cc1 (centres undefined),"inactive and inconclusive: 39.8 µM [inhibitor, partial curve]",
Cc1ccc(-n2ncnc2-c2cc3c(n(-c4ccc(C)cc4)c2=O)CC(C)(C)CC3=O)cc1,"inconclusive: 17.8 µM [inhibitor, full curve, poor fit]",
COc1ccc2oc(=O)c(-c3cn4ccc(C)cc4n3)cc2c1,"inconclusive: 10 µM [inhibitor, partial curve]",
COc1ccc(CCNC(=O)c2cc(Nc3ccccc3)nc3ccccc23)cc1OC,inactive,
COc1ccccc1N1CCN(S(=O)(=O)c2cccs2)CC1,inactive,
Cc1cccc(-n2ccc(=O)c(C(=O)O)n2)c1,"inconclusive: 39.8 µM [inhibitor, partial curve]",
CCOc1cccc(-c2cnc3cccnn23)c1,"inconclusive: 50.1 µM [inhibitor, partial curve, poor fit]",
CCCCNC(=O)c1onc(CSc2ccccc2)c1C(=O)O,"inconclusive: 2.82 µM [inhibitor, full curve, poor fit]",
CCc1ccc(-c2n[nH]nc2C2=CC(=O)C[C@H](c3ccc(F)cc3)C2)cc1,"inconclusive: 70.8 µM [inhibitor, partial curve, poor fit]",
COc1cc(NS(=O)(=O)c2ccc(NC(=S)NC(=O)c3ccco3)cc2)ncn1,"inconclusive: 50.1 µM [inhibitor, partial curve, poor fit]",
Cc1nc2c(c(C)nn2-c2ccccc2)c(C)c1CCC(=O)Nc1ccccc1,inactive,
CCCCSc1ncc(C(=O)OCC)c(N)n1,inactive,
COc1ccc(-c2cc(C(=O)Nc3ccc(C)c(C)c3)no2)cc1,inactive,
COc1ccccc1N1CCN(C(c2ccc(F)cc2)c2nnnn2C(C)C)CC1 (centres undefined),inactive,
COC(=O)C1=C(C)N=C2SC=C(CC(=O)N3CCCC3)N2C1c1ccc(C)cc1C (centres undefined),"inconclusive: 6.31 µM [inhibitor, full curve]",
Cc1oc2c(c1C(=O)NCCN1CCCC(C)C1)CN(Cc1cccc(F)c1)CC2 (centres undefined),"inconclusive: 11.2 µM [inhibitor, full curve]",
Cc1cc(Nc2cccc(Cl)c2)nc2ccc(NC(=O)CC3CCCCC3)cc12,"inconclusive: 35.5 µM [inhibitor, partial curve, poor fit]",
O=C(Cc1csc(N2CCOCC2)n1)N/N=C/c1ccc(O)c(O)c1O,inactive,

Compound,Potency,"activity change, negative = inhibition"
CS(=O)(=O)N1CCN(Cc2ccc(C(F)(F)F)cc2)CC1,"inconclusive: 20 µM [inhibitor, full curve, poor fit]",
O=C(Cc1ccc(F)cc1)N1CCC2(CC1)CC(=O)N(c1ccccc1)c1ccccc1O2,inactive,
Cc1cc(Cl)ccc1OCC(=O)OCC(=O)c1ccc(Cl)cc1,"inconclusive: 28.2 µM [inhibitor, partial curve, poor fit]",
COc1cccc(CC(O)CC2c3c(cc4c(c3OC)OCO4)CCN2C)c1 (centres undefined),"inconclusive: 126 µM [inhibitor, single point]",
CC1(c2ccc(Cl)cc2)NC(=O)N(CC(=O)Nc2ccc(F)cc2)C1=O (centres undefined),"inconclusive: 50.1 µM [inhibitor, partial curve, poor fit]",
COc1cccc(C(=O)NC2CC(C)(C)Cc3c2cnn3-c2cccc(F)c2)c1OC (centres undefined),"inconclusive: 112 µM [inhibitor, single point]",
Cc1nnc(SC(=O)N2c3ccccc3Sc3ccccc32)s1,"inconclusive: 100 µM [inhibitor, single point]",
COc1cc(NC(=O)CCCn2c(=O)oc3ccccc32)cc(OC)c1,"inconclusive: 100 µM [inhibitor, single point]",
C[C@@H]1CC[C@H](Cc2ccc(-n3cccc3)cc2)N1C(=O)OC(C)(C)C,,inconclusive: -35.7% [inhibitor]
Cc1cccc(NC(=O)CSCC(=O)N(C)CC(=O)Nc2cccc(F)c2)c1,inactive,
COc1ccc(C(=O)CC(=O)C(=O)NCCc2cccc(C)c2)cc1,"inconclusive: 0.708 µM [inhibitor, full curve]",
O=C(Nc1nncs1)c1ccc2c(c1)OCO2,"inconclusive: 8.91 µM [inhibitor, partial curve, poor fit]",
COc1ccc(-n2c(=O)c3c(n2Cc2ccccc2)CN(CC2CCOC2)CC3)cc1 (centres undefined),"inconclusive: 50.1 µM [inhibitor, partial curve]",
Cc1ccc2nc(NC(=O)CSc3cc(C)[nH]c(=O)n3)sc2c1,"inconclusive: 112 µM [inhibitor, partial curve, poor fit]",
Cc1cc(C)c(NC(=O)C2CC=CCC2)c(C)c1 (centres undefined),inactive,
OCCNc1nc(Nc2cccc(O)c2)nc2ccccc12,"inconclusive: 50.1 µM [inhibitor, partial curve, poor fit]",
CCOC(=O)[C@]12CCC=C1N(CCC1=CCCCC1)C(=O)[C@H](CC(=O)NCc1ccc(C)o1)C2,"inconclusive: 2.82 µM [inhibitor, full curve, poor fit]",
CC(=O)n1c2c(c3ccccc31)OC(N)=C(C#N)C2c1ccc(C(C)C)cc1 (centres undefined),"inconclusive: 44.7 µM [inhibitor, partial curve, poor fit]",
COCCCn1c(SCC(=O)Nc2nnc(C)s2)nnc1-c1ccoc1C,"inconclusive: 79.4 µM [inhibitor, single point]",
COc1ccc(CN2CCN(Cc3ccc(Br)cc3)CC2)c(OC)c1OC,"inconclusive: 4.47 µM [inhibitor, full curve, poor fit]",
CC1CC(C)CN(CCOc2cccc(Cl)c2Cl)C1 (centres undefined),inactive,
C/C(=N\Nc1nc(N2CCCCCC2)nc(N2CCCCCC2)n1)c1ccccc1,inactive,
CC(C)NC(=O)N(C)C[C@@H]1Oc2cc(C#Cc3ccccn3)ccc2S(=O)(=O)N([C@@H](C)CO)C[C@H]1C,"inconclusive: 31.6 µM [inhibitor, full curve, poor fit]",

# Already shown: entries from further up.
Compound,Potency,"activity change, negative = inhibition"
CS(=O)(=O)N1CCN(Cc2ccc(C(F)(F)F)cc2)CC1,"inconclusive: 20 µM [inhibitor, full curve, poor fit]",
O=C(Cc1ccc(F)cc1)N1CCC2(CC1)CC(=O)N(c1ccccc1)c1ccccc1O2,inactive,
Cc1cc(Cl)ccc1OCC(=O)OCC(=O)c1ccc(Cl)cc1,"inconclusive: 28.2 µM [inhibitor, partial curve, poor fit]",
COc1cccc(CC(O)CC2c3c(cc4c(c3OC)OCO4)CCN2C)c1 (centres undefined),"inconclusive: 126 µM [inhibitor, single point]",
CC1(c2ccc(Cl)cc2)NC(=O)N(CC(=O)Nc2ccc(F)cc2)C1=O (centres undefined),"inconclusive: 50.1 µM [inhibitor, partial curve, poor fit]",
COc1cccc(C(=O)NC2CC(C)(C)Cc3c2cnn3-c2cccc(F)c2)c1OC (centres undefined),"inconclusive: 112 µM [inhibitor, single point]",
Cc1nnc(SC(=O)N2c3ccccc3Sc3ccccc32)s1,"inconclusive: 100 µM [inhibitor, single point]",
COc1cc(NC(=O)CCCn2c(=O)oc3ccccc32)cc(OC)c1,"inconclusive: 100 µM [inhibitor, single point]",
C[C@@H]1CC[C@H](Cc2ccc(-n3cccc3)cc2)N1C(=O)OC(C)(C)C,,inconclusive: -35.7% [inhibitor]
Cc1cccc(NC(=O)CSCC(=O)N(C)CC(=O)Nc2cccc(F)c2)c1,inactive,
COc1ccc(C(=O)CC(=O)C(=O)NCCc2cccc(C)c2)cc1,"inconclusive: 0.708 µM [inhibitor, full curve]",
O=C(Nc1nncs1)c1ccc2c(c1)OCO2,"inconclusive: 8.91 µM [inhibitor, partial curve, poor fit]",
COc1ccc(-n2c(=O)c3c(n2Cc2ccccc2)CN(CC2CCOC2)CC3)cc1 (centres undefined),"inconclusive: 50.1 µM [inhibitor, partial curve]",
Cc1ccc2nc(NC(=O)CSc3cc(C)[nH]c(=O)n3)sc2c1,"inconclusive: 112 µM [inhibitor, partial curve, poor fit]",

# Further records.

Compound,Potency,"activity change, negative = inhibition"
CCOC(=O)C1CCN(S(=O)(=O)c2ccc(-c3cc(C(F)(F)F)n(C)n3)s2)CC1,inactive,
COc1cc([N+](=O)[O-])ccc1NC(=O)NNC(=O)c1sccc1C,inactive,
C(=NN=Cc1c[nH]c2ccccc12)c1c[nH]c2ccccc12,inactive,
c1ccc(-c2cnc(Nc3ccc4c(c3)OCCO4)c3c2CCO3)cc1,inactive,
Cc1cc(C)n(-c2ccn(Cc3ccc(Cl)cc3Cl)c(=O)n2)n1,"inconclusive: 79.4 µM [inhibitor, partial curve, poor fit]",
CCOC(=O)c1cnc2c(Cl)cccc2c1Nc1ccccc1OC,inactive,
Cc1cccc(N2CCN(C(=O)c3ccc(CNS(=O)(=O)c4ccc5ccccc5c4)cc3)CC2)c1,"inconclusive: 126 µM [inhibitor, single point]",
OC(COc1ccccc1)CN1CCN(CC(O)COc2ccccc2)CC1 (centres undefined),"inconclusive: 39.8 µM [inhibitor, single point]",
CN1C[C@H](O)C[C@H]1c1nnc2n1CCN(Cc1ccc(F)cc1F)C2,"inconclusive: 35.5 µM [inhibitor, single point]",
NC(=O)c1c(NC(=O)CCCn2cnc([N+](=O)[O-])n2)sc2c1CCCC2,active: 39.8 µM,
COC(=O)c1sccc1NC(=O)CSCCc1ccccn1,inactive,
Cc1nn(Cc2ccc(Cl)c(Cl)c2)c(C)c1NC(=O)c1cc(-c2ccc3c(c2)OCO3)on1,inactive,
Cc1ccc(C(=O)NC2CCN(c3cc(-c4ccccc4)[nH]n3)C2)cc1 (centres undefined),inactive,
COc1cccc2c(NCc3ccccc3)nc(-n3c(N)nc4ccccc43)nc12,"inconclusive: 12.2 µM [inhibitor, single point]",
CS(=O)(=O)Nc1cccc2cccnc12,inactive,
COc1cccc(CC(=O)OCC(=O)Nc2c(C)nn(-c3ccccc3)c2C)c1,"inconclusive: 35.5 µM [inhibitor, partial curve, poor fit]",
Cc1ccc(OCC(=O)N/N=C/c2cccn2C)cc1C,inactive,
COc1ccc(N(C(=O)Cn2nnc(-c3ccc(F)cc3)n2)C(C)C(=O)NC2CCCC2)cc1 (centres undefined),"inconclusive: 141 µM [inhibitor, single point]",
CCOC(=O)N1CCN(c2nc(C)c3c(n2)CC(/C=C/c2ccccc2)CC3=O)CC1 (centres undefined),"inconclusive: 141 µM [inhibitor, single point]",
c1ccc(-c2ccc3c(c2)c2c4n3CCN=C4CCC2)cc1,"inconclusive: 100 µM [inhibitor, partial curve, poor fit]",
O=C(N=Nc1c(O)[nH]c2ccccc12)c1cccc(S(=O)(=O)Nc2ccccc2Cl)c1,inactive,
Cc1[nH]n(-c2ccccc2)c(=S)c1C=NCCCN=Cc1c(C)[nH]n(-c2ccccc2)c1=S,active: 11.2 µM,
Cc1ccc(CNC(=O)c2cccc(-c3ccc(S(=O)(=O)N4CCCCC4)cc3)c2)cc1,inactive,

# From PubChem BioAssay AID1671190 (National Center for Advancing Translational Sciences (NCATS), 2021)
